Experimental data from patent US20170233449A1.
Numbering of substitutions follows the chain as printed. No constants are given. Whether binding was seen depends on the method and setting. Some binding calls cover weakened binding; strength is not graded here. One block for each binder: values may come before it.

Tests used:
[1] = biological target: cynomolgus monkey CD38 extracellular domain (ECD), tagged (cynomolgus monkey); experiment: ELISA, hybridoma supernatant coated, biotinylated CD38 ED in solution
[2] = biological target: human CD38 extracellular domain (ECD), tagged (human); experiment: as above

binding [1]: binds | binding [2]: binds
B1: R7H11 (rat hybridoma antibody) (antibody, V domains shown)
VH: QVQLKESGPGLLLSSETLSLTCTVSGFSLTSYEVSWVRQLPGRGLEWMGRVWIGGDTDYNSDLKSRLSISRDIAKSQVFLKMSNLKTEDTGTYYCARAYGFNYWSFDFWGPGTMVTVSS
VL: GQFTLTQPKSVSGSLRSTITIPCERSSGDIGDNYVTWYQQHLGRPPLNVIYADDQRPSEVSDRFSGSIDSSSNSASLTITNLQMDDEADYFCQSYDSNTDIIFGGGTKVTVL

binding [1]: binds | binding [2]: binds
B2: R10B10 (rat hybridoma antibody) (antibody, V domains shown)
VH: QVQLKESGPGLVQPSETLSLTCTVSGFSLTSYGVNWVRQPPGKGLEWMGRIWNDGSIDYNSALKSRLSISRDTSKGQVFLKMNSLQTEDTAIYFCARGPYNNYWYFDFWGPGTMVTVLS
VL: B1 VL with T36S, L47I, T99I, V109L
